From PubChem BioAssay AID328 (DTP/NCI, 2004)
The list shows only some results of the screen, not a fair sample: it is rich in T/C values a quarter to a half above the control, in often repeated tests (any T/C) and in doses without a T/C. Other doses and runs of a compound stand elsewhere. T/C gives the treated animals as a percentage of the vehicle group. Some entries give survivors of the animals treated and no T/C: the source holds a T/C of zero for them, seemingly a mark for toxic or unscored doses. Some survivor counts are full or nearly so, which does not show that the dose was tolerated: survival well below the control is almost never listed, so the zero probably covers shortened survival too. Counts of survivors are from the toxicity check (mostly the fifth day) where no day follows; animals may have died later. Schedules are NCI's codes, taken here to give the interval after Q, in days (D) or hours (H), and the number of doses after X. For survival time, this PubChem deposit counts one and a half times the control or more as active, and values a quarter to a half above the control carry no call in these data; other NCI protocols may use other cut-offs. Some T/C values carry the count of animals alive at the toxicity check (mostly the fifth day); where none is given, no animal had died by that day.

Tested on: BDF1 mice, P388 leukemia ip, median survival T/C
Experiment: NCI In Vivo Anticancer Drug Screen. Data for tumor model P388 Leukemia (intraperitoneal) in B6D2F1 (BDF1) mice
Conditions: T/C endpoint: median survival time, higher T/C = longer survival
Method in brief: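 Read-out is survival of treated animals expressed relative to the vehicle group, as a T/C ratio.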

[1] = dose: 50.0 mg/kg/injection, schedule: Q01DX009 (ip), vehicle: saline with Tween-80
[2] = dose: 50.0 mg/kg/injection, schedule: Q01DX009 (ip), vehicle: Klucel (hydroxypropylcellulose) (HPC)
[3] = dose: 200.0 mg/kg/injection, schedule: Q01DX001 (ip), vehicle: Klucel (hydroxypropylcellulose) (HPC)

In the case of COC(=O)C(CCCCNC(=O)OCc1ccccc1)NC(=O)C(CCCCNC(=O)OCc1ccccc1)NC(=O)OC(C)(C)C (stereo unspecified), the survivor count (dose: 50.0 mg/kg/injection, schedule: Q01DX005 (ip), vehicle: saline with Tween-80) is reported as 5 of 5 and the survivor count (dose: 100.0 mg/kg/injection, schedule: Q01DX005 (ip), vehicle: saline with Tween-80) is reported as 5 of 5.

c1ccc(-c2nc3ccccc3nc2-c2ccc(Sc3ccc(-c4nc5ccccc5nc4-c4ccccc4)cc3)cc2)cc1 was tested, and the survivor count [1] was 6 of 6.

With COC12C(COC(=O)NCCO)C3=C(C(=O)C(C)=C(N)C3=O)N1CC1NC12 (stereo unspecified) the survivor count (dose: 50.0 mg/kg/injection, schedule: Q01DX009 (ip), vehicle: saline) was 6 of 6.

With O=C(O)CSC(=S)c1ccccc1 the T/C [1] was 129 % of control [5 of 6 alive].

With O=C(Nc1ccc(NC(=O)c2ccc(C3=NCCCN3)cc2)cc1)c1ccc(C2=NCCCN2)cc1 the T/C (dose: 33.0 mg/kg/injection, schedule: Q04DX003 (ip), vehicle: saline with Tween-80) was 146 % of control.

With CC(C)(CBr)C(=O)N1CCN(C(=O)C(C)(C)CBr)CC1 the T/C (dose: 13.0 mg/kg/injection, schedule: Q04DX003 (ip), vehicle: Klucel (hydroxypropylcellulose) (HPC)) was 136 % of control and the survivor count (dose: 150.0 mg/kg/injection, schedule: Q04DX003 (ip), vehicle: Klucel (hydroxypropylcellulose) (HPC)) was 5 of 6.

In the case of CCOC1=CCCCC1, the T/C (dose: 100.0 mg/kg/injection, schedule: Q01DX009 (ip), vehicle: saline) is reported as 135 % of control and the T/C (dose: 400.0 mg/kg/injection, schedule: Q01DX009 (ip), vehicle: saline) is reported as 130 % of control.

With N#CC(C#N)=Cc1cccc([N+](=O)[O-])c1 the survivor count (dose: 25.0 mg/kg/injection, schedule: Q04DX003 (ip), vehicle: Klucel (hydroxypropylcellulose) (HPC)) was 6 of 6, the T/C [2] was 125 % of control [5 of 6 alive] and the survivor count [2] was 5 of 6. For the same compound, the T/C (dose: 100.0 mg/kg/injection, schedule: Q01DX009 (ip), vehicle: Klucel (hydroxypropylcellulose) (HPC)) was 145 % of control [5 of 6 alive].

With Cc1nc(Cl)c2c(n1)Oc1nc(C)nc(Cl)c1C2c1ccc(Cl)cc1 the survivor count [3] was 6 of 6.

With C=C1C(=O)OC2C1CC/C(C)=C/CCC1(C)OC21 (stereo unspecified) the survivor count (dose: 140.0 mg/kg/injection, schedule: Q01DX009 (ip), vehicle: Klucel (hydroxypropylcellulose) (HPC)) was 0 of 3 and the survivor count (dose: 280.0 mg/kg/injection, schedule: Q01DX009 (ip), vehicle: Klucel (hydroxypropylcellulose) (HPC)) was 0 of 3.

With Cc1cc(C)c(-c2cc(O)c(C)cc2O)c(C)c1 the T/C (dose: 50.0 mg/kg/injection, schedule: Q01DX009 (ip), vehicle: other) was 128 % of control, the survivor count (dose: 50.0 mg/kg/injection, schedule: Q04DX003 (ip), vehicle: saline with Tween-80) was 6 of 6 and the survivor count (dose: 100.0 mg/kg/injection, schedule: Q04DX003 (ip), vehicle: saline with Tween-80) was 6 of 6. For the same compound, the T/C (dose: 200.0 mg/kg/injection, schedule: Q01DX009 (ip), vehicle: other) was 148 % of control, the T/C (dose: 400.0 mg/kg/injection, schedule: Q01DX009 (ip), vehicle: other) was 138 % of control and the survivor count (dose: 400.0 mg/kg/injection, schedule: Q04DX003 (ip), vehicle: saline with Tween-80) was 6 of 6.

For Cc1nc(N)c([N+](=O)[O-])cc1[N+](=O)[O-], the survivor count [3] was 4 of 6 and the survivor count (dose: 400.0 mg/kg/injection, schedule: Q01DX001 (ip), vehicle: Klucel (hydroxypropylcellulose) (HPC)) was 0 of 6.

For CCCCn1cnc2c(SC)ncnc21, the T/C (dose: 50.0 mg/kg/injection, schedule: Q04DX003 (ip), vehicle: saline) was 127 % of control.
